Values from PubChem BioAssay AID504795 (Drosophila RNAi Screening Center, 2011)

Purpose: 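Knock-downs causing abnormal branching, bundling, swelling or growth of cultured neurons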 (primary screen)
Cells: primary Drosophila neurons and glia
Reagent: long dsRNA against Drosophila genes, 250 ng dsRNA per well
Duration: one week
Measured: 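GFP-labelled neurons and glia imaged live by automated microscope one week after 250 ng dsRNA per well; morphology scored by eye as descriptive phenotype terms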
This is not the whole library: the list holds selected reagents. 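Every listed dsRNA shows some phenotype; how reagents were selected for listing is not stated.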 Names joined by + are all predicted targets of the reagent. Reagent sequences are not shown.

target gene,dsRNA,"phenotype seen, replicate 1","phenotype seen, replicate 2"
syd (sunday driver),DRSC10963,abnormal cell clusters,
CtsL3 (Cathepsin L3),DRSC12171,axon bundles split apart,
CG30039,DRSC21794,fewer cells,
Gr58b (Gustatory receptor 58b),DRSC04140,axon bundles split apart,
RpS26 (Ribosomal protein S26),DRSC03420,too many neurite branches,
alphaTub84B (alpha-Tubulin at 84B),DRSC12622,axon bundles split apart,reduced axon outgrowth
CG2871,DRSC21719,axon bundles split apart,
wupA (wings up A),DRSC20385,sheet-like cell extensions,
PIG-O (Phosphatidylinositol glycan anchor biosynthesis class O),DRSC06123,abnormal cell clusters,
CG32507,DRSC20421,cell fragments present,
CG15561,DRSC15100,reduced axon outgrowth,
CG13028,DRSC09908,axon bundles split apart,
CG8468,DRSC07190,fewer cells,
ND-B14 (NADH dehydrogenase (ubiquinone) B14 subunit),DRSC07029,axon bundles split apart,
Toll-7,DRSC07563,sheet-like cell extensions,
CG6923,DRSC16136,too many neurite branches,
fry (furry),DRSC10712,sheet-like cell extensions,
AttB (Attacin-B),DRSC06734,axon bundles split apart,
CG30127 (retired record),DRSC05786,too many neurite branches,
CG12857,DRSC06197,sheet-like cell extensions,
CG13766,DRSC02271,abnormal cell clusters,
sktl (skittles),DRSC04715,abnormal cell clusters,
Obp47a (Odorant-binding protein 47a),DRSC06255,too many neurite branches,
wtrw (water witch),DRSC15278,neurite branching,
caps (capricious),DRSC11333,sheet-like cell extensions,
CG17198 + CG17197,DRSC15191,axon bundles split apart,
CG30412,DRSC04564,too many neurite branches,
Sgt1 (suppressor-of-G2-allele-of-skp1),DRSC16519,abnormal cell clusters,
Mzt1 (Mitotic spindle organizing protein 1),DRSC07979,axon bundles split apart,
CG15296,DRSC17983,sheet-like cell extensions,
ppk29 (pickpocket 29),DRSC04205,axon bundles split apart,
Nse4 (Non-SMC element 4),DRSC02239,reduced axon outgrowth,
CG14153,DRSC22595,too many neurite branches,
ND-51L2 (NADH dehydrogenase (ubiquinone) 51 kDa subunit-like 2),DRSC07080,too many neurite branches,
CG32512,DRSC21401,sheet-like cell extensions,

In a second layout: 4 of the entries above
Toll-7 [DRSC07563]
- phenotype seen, replicate 1: sheet-like cell extensions

CG6923 [DRSC16136]
- phenotype seen, replicate 1: too many neurite branches

fry (furry) [DRSC10712]
- phenotype seen, replicate 1: sheet-like cell extensions

AttB (Attacin-B) [DRSC06734]
- phenotype seen, replicate 1: axon bundles split apart
